Measurements reported in the supplement of paper PMC10849652.
This is one part of the list.

Sequences of proteins named here, by UniProt entry; tags and fusion partners are left off. A change or cut given only in a name is not applied to a line headed by its entry.
UniProt P69849: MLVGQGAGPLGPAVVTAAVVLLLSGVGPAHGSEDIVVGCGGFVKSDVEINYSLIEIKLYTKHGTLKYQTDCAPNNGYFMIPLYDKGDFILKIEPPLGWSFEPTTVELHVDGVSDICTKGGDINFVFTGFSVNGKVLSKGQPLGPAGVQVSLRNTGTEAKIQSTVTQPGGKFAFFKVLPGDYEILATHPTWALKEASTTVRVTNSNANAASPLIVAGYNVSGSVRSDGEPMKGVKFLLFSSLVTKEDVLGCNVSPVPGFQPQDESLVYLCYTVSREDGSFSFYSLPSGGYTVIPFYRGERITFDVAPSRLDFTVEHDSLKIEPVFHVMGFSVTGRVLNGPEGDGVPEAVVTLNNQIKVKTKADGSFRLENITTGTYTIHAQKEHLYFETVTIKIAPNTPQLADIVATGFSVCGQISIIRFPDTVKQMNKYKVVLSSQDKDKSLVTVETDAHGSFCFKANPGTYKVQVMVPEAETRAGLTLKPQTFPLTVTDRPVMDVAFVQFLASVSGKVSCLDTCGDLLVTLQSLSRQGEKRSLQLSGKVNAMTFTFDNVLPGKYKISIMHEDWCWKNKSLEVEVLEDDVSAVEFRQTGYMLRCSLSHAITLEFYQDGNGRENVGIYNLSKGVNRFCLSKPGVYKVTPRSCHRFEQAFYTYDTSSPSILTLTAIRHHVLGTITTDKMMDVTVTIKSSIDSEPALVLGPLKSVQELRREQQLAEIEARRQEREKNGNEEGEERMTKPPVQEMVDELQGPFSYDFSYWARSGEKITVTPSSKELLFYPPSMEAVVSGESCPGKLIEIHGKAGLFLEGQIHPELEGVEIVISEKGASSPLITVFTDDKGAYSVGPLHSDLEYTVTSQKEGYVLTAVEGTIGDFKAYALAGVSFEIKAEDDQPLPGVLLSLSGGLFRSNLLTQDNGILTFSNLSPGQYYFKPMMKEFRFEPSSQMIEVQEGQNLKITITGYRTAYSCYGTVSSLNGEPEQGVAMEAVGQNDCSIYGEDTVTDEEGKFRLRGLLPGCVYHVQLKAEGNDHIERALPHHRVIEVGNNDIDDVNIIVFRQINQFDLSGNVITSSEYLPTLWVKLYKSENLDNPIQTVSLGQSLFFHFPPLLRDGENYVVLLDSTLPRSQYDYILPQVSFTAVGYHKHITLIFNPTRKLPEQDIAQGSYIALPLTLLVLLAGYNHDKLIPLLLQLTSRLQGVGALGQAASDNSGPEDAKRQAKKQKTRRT
UniProt Q9BZ95: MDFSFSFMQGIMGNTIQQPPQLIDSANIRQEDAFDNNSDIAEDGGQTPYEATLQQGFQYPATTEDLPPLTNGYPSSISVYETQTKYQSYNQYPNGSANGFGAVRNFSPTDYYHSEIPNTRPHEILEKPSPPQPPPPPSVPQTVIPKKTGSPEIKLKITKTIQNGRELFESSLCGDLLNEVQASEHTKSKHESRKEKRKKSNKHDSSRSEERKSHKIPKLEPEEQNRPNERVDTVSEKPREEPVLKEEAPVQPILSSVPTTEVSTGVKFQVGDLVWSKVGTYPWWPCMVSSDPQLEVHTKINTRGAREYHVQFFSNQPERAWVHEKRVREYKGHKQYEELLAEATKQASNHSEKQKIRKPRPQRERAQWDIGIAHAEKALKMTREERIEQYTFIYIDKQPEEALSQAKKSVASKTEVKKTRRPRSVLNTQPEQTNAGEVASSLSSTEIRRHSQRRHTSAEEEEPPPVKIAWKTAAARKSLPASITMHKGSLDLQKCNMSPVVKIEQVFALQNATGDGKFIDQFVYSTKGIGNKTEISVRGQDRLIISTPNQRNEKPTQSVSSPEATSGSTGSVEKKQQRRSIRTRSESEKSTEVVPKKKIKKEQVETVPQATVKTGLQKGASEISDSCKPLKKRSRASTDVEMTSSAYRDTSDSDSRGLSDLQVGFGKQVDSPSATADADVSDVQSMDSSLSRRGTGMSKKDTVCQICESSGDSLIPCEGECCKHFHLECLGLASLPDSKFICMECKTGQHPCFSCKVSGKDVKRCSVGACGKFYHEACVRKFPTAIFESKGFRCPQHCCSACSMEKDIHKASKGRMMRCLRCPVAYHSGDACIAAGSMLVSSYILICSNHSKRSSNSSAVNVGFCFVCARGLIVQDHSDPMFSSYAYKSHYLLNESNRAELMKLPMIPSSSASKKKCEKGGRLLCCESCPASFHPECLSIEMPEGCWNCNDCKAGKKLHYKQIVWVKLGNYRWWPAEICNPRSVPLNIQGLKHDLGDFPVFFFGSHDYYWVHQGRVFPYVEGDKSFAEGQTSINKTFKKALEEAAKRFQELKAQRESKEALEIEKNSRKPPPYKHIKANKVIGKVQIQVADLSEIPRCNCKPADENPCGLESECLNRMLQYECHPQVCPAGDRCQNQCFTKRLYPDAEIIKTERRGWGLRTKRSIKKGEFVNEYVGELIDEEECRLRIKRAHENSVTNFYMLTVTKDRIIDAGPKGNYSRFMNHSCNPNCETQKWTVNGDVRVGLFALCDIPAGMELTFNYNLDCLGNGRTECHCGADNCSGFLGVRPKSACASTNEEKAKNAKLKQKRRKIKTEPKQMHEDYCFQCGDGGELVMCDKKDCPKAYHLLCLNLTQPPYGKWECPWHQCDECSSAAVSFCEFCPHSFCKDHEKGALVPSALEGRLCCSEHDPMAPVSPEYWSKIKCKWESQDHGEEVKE
UniProt Q9H7Z3: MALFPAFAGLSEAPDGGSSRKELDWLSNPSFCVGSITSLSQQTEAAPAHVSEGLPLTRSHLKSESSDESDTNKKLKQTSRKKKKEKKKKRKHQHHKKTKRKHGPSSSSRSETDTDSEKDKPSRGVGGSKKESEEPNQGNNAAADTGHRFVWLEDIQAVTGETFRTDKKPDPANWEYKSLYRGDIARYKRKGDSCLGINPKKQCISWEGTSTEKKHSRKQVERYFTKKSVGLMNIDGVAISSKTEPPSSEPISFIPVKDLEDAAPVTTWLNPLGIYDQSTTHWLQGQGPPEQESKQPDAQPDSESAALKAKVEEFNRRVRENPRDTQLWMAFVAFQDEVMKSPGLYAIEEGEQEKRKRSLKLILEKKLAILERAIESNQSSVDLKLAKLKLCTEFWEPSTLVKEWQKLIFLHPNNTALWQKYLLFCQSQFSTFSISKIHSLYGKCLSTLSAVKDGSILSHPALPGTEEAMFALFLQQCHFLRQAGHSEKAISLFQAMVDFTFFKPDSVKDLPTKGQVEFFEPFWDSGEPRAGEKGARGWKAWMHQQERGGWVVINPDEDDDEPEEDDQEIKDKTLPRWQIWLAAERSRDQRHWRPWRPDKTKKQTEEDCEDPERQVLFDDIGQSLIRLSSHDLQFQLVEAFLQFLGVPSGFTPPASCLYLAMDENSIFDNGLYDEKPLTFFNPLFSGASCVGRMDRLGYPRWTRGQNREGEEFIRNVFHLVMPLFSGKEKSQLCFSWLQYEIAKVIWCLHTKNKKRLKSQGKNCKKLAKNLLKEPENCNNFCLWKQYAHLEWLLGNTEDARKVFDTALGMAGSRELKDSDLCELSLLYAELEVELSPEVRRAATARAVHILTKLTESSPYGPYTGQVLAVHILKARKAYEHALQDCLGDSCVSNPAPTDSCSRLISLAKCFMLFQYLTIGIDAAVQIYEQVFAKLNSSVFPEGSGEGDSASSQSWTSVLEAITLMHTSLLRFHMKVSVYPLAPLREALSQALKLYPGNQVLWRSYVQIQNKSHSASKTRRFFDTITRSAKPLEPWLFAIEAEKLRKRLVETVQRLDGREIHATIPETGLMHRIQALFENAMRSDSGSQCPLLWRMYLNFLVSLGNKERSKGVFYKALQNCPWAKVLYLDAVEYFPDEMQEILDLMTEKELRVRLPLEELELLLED
UniProt Q9NWW6: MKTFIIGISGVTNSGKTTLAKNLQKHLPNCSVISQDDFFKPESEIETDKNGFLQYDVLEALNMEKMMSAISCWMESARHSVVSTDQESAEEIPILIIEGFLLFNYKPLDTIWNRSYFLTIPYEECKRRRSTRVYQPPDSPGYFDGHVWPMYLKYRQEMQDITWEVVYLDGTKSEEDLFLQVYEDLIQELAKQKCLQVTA
UniProt P24468: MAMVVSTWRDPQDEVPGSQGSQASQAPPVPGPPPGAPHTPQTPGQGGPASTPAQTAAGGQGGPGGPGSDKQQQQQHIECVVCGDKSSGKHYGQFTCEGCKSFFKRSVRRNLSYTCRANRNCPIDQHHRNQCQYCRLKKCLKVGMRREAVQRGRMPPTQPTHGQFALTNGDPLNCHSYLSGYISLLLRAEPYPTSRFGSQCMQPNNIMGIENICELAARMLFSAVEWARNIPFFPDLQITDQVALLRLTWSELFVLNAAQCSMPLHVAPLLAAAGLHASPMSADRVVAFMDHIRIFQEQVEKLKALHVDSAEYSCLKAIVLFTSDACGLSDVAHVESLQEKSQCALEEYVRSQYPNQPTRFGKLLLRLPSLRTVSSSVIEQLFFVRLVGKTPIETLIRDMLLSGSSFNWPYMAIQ
UniProt O00746: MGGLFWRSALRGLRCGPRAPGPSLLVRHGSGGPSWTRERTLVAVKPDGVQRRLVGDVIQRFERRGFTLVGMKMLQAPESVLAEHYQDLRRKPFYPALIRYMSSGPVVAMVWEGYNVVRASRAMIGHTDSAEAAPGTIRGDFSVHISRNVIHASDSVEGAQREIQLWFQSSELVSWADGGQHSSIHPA
UniProt Q96T66: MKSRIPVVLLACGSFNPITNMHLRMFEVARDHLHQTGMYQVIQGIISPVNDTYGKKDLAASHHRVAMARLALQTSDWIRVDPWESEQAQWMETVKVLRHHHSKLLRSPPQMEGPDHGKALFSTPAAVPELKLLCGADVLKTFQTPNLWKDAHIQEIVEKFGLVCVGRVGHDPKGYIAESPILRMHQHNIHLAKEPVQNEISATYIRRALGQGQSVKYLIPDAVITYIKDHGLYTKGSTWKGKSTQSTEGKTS
UniProt O95848: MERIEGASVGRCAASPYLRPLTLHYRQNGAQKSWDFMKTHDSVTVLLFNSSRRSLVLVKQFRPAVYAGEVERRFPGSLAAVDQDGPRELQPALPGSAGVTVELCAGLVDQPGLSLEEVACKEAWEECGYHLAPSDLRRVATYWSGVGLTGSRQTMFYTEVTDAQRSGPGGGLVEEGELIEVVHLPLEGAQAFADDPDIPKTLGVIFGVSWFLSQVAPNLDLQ
UniProt Q96MY1: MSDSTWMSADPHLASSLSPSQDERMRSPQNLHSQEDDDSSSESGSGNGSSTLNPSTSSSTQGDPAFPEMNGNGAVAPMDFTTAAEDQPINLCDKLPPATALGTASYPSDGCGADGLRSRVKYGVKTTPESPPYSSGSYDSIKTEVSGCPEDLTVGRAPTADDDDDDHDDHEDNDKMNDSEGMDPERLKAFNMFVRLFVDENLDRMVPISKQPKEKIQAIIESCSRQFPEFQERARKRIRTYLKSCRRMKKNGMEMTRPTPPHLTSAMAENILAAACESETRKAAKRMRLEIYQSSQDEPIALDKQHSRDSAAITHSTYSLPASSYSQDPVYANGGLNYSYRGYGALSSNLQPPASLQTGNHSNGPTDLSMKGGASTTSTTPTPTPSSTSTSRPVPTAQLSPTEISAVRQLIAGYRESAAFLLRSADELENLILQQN
UniProt Q12980: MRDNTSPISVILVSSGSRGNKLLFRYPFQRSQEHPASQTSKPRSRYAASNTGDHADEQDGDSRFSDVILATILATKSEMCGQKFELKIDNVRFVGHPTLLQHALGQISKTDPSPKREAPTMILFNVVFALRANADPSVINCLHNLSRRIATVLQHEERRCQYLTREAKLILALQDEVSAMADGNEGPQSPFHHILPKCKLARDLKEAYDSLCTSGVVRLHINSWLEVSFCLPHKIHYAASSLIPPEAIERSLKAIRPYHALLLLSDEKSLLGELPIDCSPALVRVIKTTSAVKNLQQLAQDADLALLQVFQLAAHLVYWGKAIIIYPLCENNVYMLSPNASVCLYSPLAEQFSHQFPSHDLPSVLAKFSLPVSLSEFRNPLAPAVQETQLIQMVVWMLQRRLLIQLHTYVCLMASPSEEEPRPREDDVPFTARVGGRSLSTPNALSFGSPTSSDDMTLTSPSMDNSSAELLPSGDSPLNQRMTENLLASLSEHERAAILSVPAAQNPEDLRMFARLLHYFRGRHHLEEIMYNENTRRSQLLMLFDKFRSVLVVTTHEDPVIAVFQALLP
UniProt Q92686, whole entry, looked up: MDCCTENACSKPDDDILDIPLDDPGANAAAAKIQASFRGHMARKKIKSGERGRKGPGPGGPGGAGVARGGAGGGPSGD
UniProt Q9GZP1: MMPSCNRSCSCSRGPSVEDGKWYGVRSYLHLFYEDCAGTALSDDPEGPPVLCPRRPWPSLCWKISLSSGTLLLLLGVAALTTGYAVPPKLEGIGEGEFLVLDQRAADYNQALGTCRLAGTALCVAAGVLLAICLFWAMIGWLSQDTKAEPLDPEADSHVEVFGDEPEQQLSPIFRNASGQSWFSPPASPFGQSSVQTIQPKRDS

Key:
Assay in all cases: log2 fold change, soluble protein after heating vs DMSO (PISA); higher = thermal stabilisation; K562 lysate, 10 uM; active = over 0.2 and 3.5 SD of the protein, either way, in both replicates (recomputed)
[1] = compound: CCn1c(C(=O)N(C2CC2)C2CC2)cc2c3c(ncn3C)c(Nc3cc(C)n(C)n3)nc21
How it was run: (§1)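 Soluble protein was defined as the supernatant remaining after 21,000xg for 90 min, following pooling of heated aliquots and adjustment to 0.5% NP-40 at 4°C. Before that, crude K562 extract at 1 mg/mL protein in PBS pH 7.4 with 1 mM MgCl2 was treated with 10 μM compound for 30 min and heated for 3 min across 48°C-58°C. Quantification used TMTpro 16plex LC-MS/MS with channel sums equalised, and values are log-two fold changes in thermal stability relative to solvent controls from duplicates.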

[2] = compound: CN1CCc2c(c3ccccc3n2Cc2ccc(C(=O)NO)cc2)C1 [Tubastatin A]
How it was run: as §1

[3] = compound: CCCS(=O)(=O)Nc1ccc(F)c(C(=O)c2c[nH]c3ncc(Cl)cc23)c1F
How it was run: as §1

[4] = compound: CCN(CCCOc1ccc2c(Nc3cc(CC(=O)Nc4cccc(F)c4)[nH]n3)ncnc2c1)CCOP(=O)(O)O [barasertib]
How it was run: as §1

[5] = compound: CC[C@@H]1C(=O)N(C)c2cnc(Nc3ccc(C(=O)N[C@H]4CC[C@H](N5CCN(CC6CC6)CC5)CC4)cc3OC)nc2N1C(C)C [volasertib]
How it was run: as §1

[6] = compound: COc1cc2nc(-c3cc(F)ccc3O)nc(N[C@@H]3CNC[C@H]3C(C)(C)O)c2cc1OC
How it was run: as §1

[7] = compound: CN1CCN(CCOc2cc(OC3CCOCC3)c3c(Nc4c(Cl)ccc5c4OCO5)ncnc3c2)CC1 [saracatinib]
How it was run: as §1

[8] = compound: CN1CCN(c2nc(C3=C(c4c[nH]c5ccccc45)C(=O)NC3=O)c3ccccc3n2)CC1 [sotrastaurin]
How it was run: as §1

[9] = compound: CNC(=O)C1=CC=CC=C1NC2=NC(=NC=C2Cl)NC3=C(C=C(C=C3)N4CCOCC4)OC
How it was run: as §1

[10] = compound: CNc1nc(-c2ccc3c(N)n[nH]c3c2)cc(N2C[C@@H](C(=O)NC3CCCCC3)CC[C@H]2C)n1
How it was run: as §1

[11] = compound: COc1cc(Nc2ncc3c(n2)-c2ccc(Cl)cc2C(c2c(F)cccc2OC)=NC3)ccc1C(=O)O [alisertib]
How it was run: as §1

[12] = compound: COc1cc2ncnc(Nc3ccc(F)c(Cl)c3)c2cc1OCCCN1CCOCC1 [gefitinib]
How it was run: as §1

[13] = compound: CC[C@@H]1C(=O)N(C)c2cnc(Nc3ccc(C(=O)NC4CCN(C)CC4)cc3OC)nc2N1C1CCCC1
How it was run: as §1

[14] = compound: CCn1cc(-c2ccnc3[nH]c(-c4cccc(CN(C)C)c4)cc23)c(-c2ccc(NC(=O)N(C)C)cc2)n1
How it was run: as §1

[15] = compound: CN1CCC(CNc2ccc3ncc(-c4cccc(OC(F)(F)F)c4)n3n2)CC1
How it was run: as §1

[16] = compound: CN1CC[C@H](c2c(O)cc(O)c3c(=O)cc(-c4ccccc4Cl)oc23)[C@H](O)C1 [alvocidib]
How it was run: as §1

[17] = compound: COC(=O)N[C@@H](C)CNc1nccc(-c2cn(C(C)C)nc2-c2cc(Cl)cc(NS(C)(=O)=O)c2F)n1 [encorafenib]
How it was run: as §1

[18] = compound: COC(=O)[C@H](CCSC)NC(=O)C1=C(C=C(C=C1)NC[C@H](CS)N)C2=CC=CC=C2
How it was run: as §1

[19] = compound: CCCS(=O)(=O)Nc1ccc(F)c(C(=O)c2c[nH]c3ncc(-c4ccc(Cl)cc4)cc23)c1F [vemurafenib]
How it was run: as §1

[20] = compound: CNC(=O)c1ccc(Nc2ncc(C(F)(F)F)c(NCc3nccnc3N(C)S(C)(=O)=O)n2)cc1 [defactinib]
How it was run: as §1

Measured: log2 fold change

NR1H2 (UniProt P55055)
inactive: [1] 0.179 | [2] -0.034

NT5C (UniProt J3KSX6)
inactive: [3] 0.117 | [4] -0.079 | [5] 0.21 | [6] -0.199

NOMO3 (UniProt P69849)
inactive: [3] 0.032 | [5] -0.015 | [1] -0.071 | [7] -0.039 | [8] 0.006 | [2] 0.044 | [9] -0.209 | [10] -0.027 | [11] -0.015 | [6] 0.137 | [12] 0.034

NSD3 (UniProt Q9BZ95)
inactive: [4] -0.012 | [13] 0.067 | [1] -0.012 | [14] -0.126 | [15] 0.024 | [7] -0.054 | [8] -0.016 | [16] -0.044 | [2] -0.118 | [10] 0.068 | [17] 0.149 | [18] -0.135 | [11] -0.077 | [12] 0.092

NOCT (UniProt Q9UK39)
inactive: [3] -0.04 | [13] 0 | [5] 0.02 | [1] 0.004 | [7] -0.103 | [8] -0.073 | [2] 0.012 | [9] 0.159 | [10] 0.042 | [17] 0.046 | [18] -0.01 | [11] 0.009 | [6] -0.144 | [12] -0.088

NRDE2 (UniProt Q9H7Z3)
inactive: [3] -0.073 | [4] 0.033 | [5] 0.049 | [1] -0.188 | [7] -0.459 | [2] -0.178 | [10] -0.1 | [11] 0.003 | [6] 0.102 | [12] 0.005

NOLC1 isoform 3 (UniProt Q14978)
inactive: [3] 0.019 | [4] -0.056 | [13] 0.038 | [5] 0.087 | [1] -0.137 | [14] 0.115 | [15] -0.127 | [7] 0.197 | [8] 0.099 | [16] 0.067 | [2] 0.06 | [9] 0.301 | [10] -0.07 | [17] -0.158 | [18] -0.119 | [6] 0.003

NMRK1 (UniProt Q9NWW6)
inactive: [8] 0.091

NT5C2 (UniProt Q5JUV3)
inactive: [13] 0.096 | [7] 0.027 | [8] 0.078 | [10] 0.024 | [17] 0.021 | [18] -0.258

NR2F2 (UniProt P24468)
inactive: [3] -0.081 | [4] 0.01 | [5] -0.146 | [1] -0.028 | [14] 0.005 | [15] -0.216 | [7] 0.014 | [8] 0.013 | [16] -0.053 | [2] -0.154 | [9] 0.056 | [10] -0.047 | [11] 0.072 | [6] 0.012 | [12] -0.077

NME4 (UniProt O00746)
inactive: [13] -0.029 | [1] -0.019 | [8] 0.069 | [2] -0.016 | [9] 0.036 | [17] 0.093 | [18] 0.125

NR1D1 (UniProt P20393)
inactive: [13] 0.089 | [17] -0.289 | [18] 0.014

NMNAT3 (UniProt Q96T66)
inactive: [4] -0.194

NUDT14 (UniProt O95848)
inactive: [3] 0.091 | [4] 0.008 | [5] -0.038 | [1] 0.079 | [14] -0.104 | [15] 0 | [7] 0.04 | [8] 0.072 | [16] 0.105 | [2] -0.153 | [9] -0.159 | [10] 0.006 | [6] 0.018

Taken from the listing (five entries):
NMRK1 (UniProt Q9NWW6)
inactive: [8] 0.091

NT5C2 (UniProt Q5JUV3)
inactive: [13] 0.096 | [7] 0.027 | [8] 0.078 | [10] 0.024 | [17] 0.021 | [18] -0.258

NR2F2 (UniProt P24468)
inactive: [3] -0.081 | [4] 0.01 | [5] -0.146 | [1] -0.028 | [14] 0.005 | [15] -0.216 | [7] 0.014 | [8] 0.013 | [16] -0.053 | [2] -0.154 | [9] 0.056 | [10] -0.047 | [11] 0.072 | [6] 0.012 | [12] -0.077

NME4 (UniProt O00746)
inactive: [13] -0.029 | [1] -0.019 | [8] 0.069 | [2] -0.016 | [9] 0.036 | [17] 0.093 | [18] 0.125

NR1D1 (UniProt P20393)
inactive: [13] 0.089 | [17] -0.289 | [18] 0.014

(list continues)

NOL4L (UniProt Q96MY1)
inactive: [3] 0.06 | [13] -0.051 | [5] -0.131 | [1] 0.003 | [14] 0.087 | [15] 0.065 | [7] 0.09 | [16] 0.068 | [2] -0.081 | [9] 0.026 | [10] -0.047 | [17] -0.066 | [18] 0.02 | [6] 0.044

NPRL2 (UniProt Q8WTW4)
inactive: [8] -0.132 | [11] -0.151 | [12] -0.047

NTRK1 (UniProt P04629)
inactive: [19] 0.121 | [1] 0.014 | [14] -0.177 | [15] 0.111 | [7] 0.064 | [8] -0.015 | [16] -0.387 | [2] 0.018 | [20] -0.019 | [10] -0.088 | [17] 0 | [18] -0.2

NPRL3 (UniProt Q12980)
inactive: [19] 0.018 | [1] 0.12 | [14] -0.164 | [15] 0.033 | [8] 0.057 | [16] -0.029 | [2] 0.027 | [9] 0.102 | [20] 0.092 | [11] -0.058 | [12] -0.015

NUB1 (UniProt H7C5N1)
inactive: [1] 0.312 | [2] 0.209

NUMB isoform 2 (UniProt P49757)
inactive: [1] -0.146 | [7] -0.04 | [2] -0.112 | [10] 0.158 | [11] 0.092 | [12] -0.277

NTMT1 (UniProt S4R338)
inactive: [3] 0.043 | [5] -0.002 | [6] 0.045

NUDT5 (UniProt C9JYY9)
inactive: [13] 0.036 | [9] 0.026 | [17] 0.066 | [18] -0.029 | [11] -0.092 | [12] -0.075

NOS3 (UniProt P29474)
inactive: [19] 0.107 | [9] 0.127 | [20] 0.089 | [11] -0.166 | [12] -0.146

NSDHL (UniProt C9JDR0)
inactive: [3] 0.018 | [5] 0.135 | [11] -0.05 | [6] -0.132 | [12] -0.109

NRGN (UniProt Q92686)
inactive: [4] 0.168 | [7] -0.245 | [8] 0.174 | [10] -0.07 | [11] -0.068 | [12] -0.069

NOMO1 (UniProt Q15155)
inactive: [3] 0.072 | [4] -0.026 | [13] -0.026 | [5] 0.037 | [1] 0.009 | [14] 0.341 | [15] -0.224 | [7] 0.046 | [8] -0.011 | [16] 0.21 | [2] -0.079 | [9] -0.129 | [10] -0.05 | [17] -0.191 | [18] -0.028 | [11] 0.056 | [6] -0.078 | [12] 0.08

NRSN2 (UniProt Q9GZP1)
inactive: [7] -0.177 | [10] -0.114

NRIP1 (UniProt P48552)
inactive: [3] 0.024 | [4] 0.076 | [5] -0.055 | [1] -0.124 | [15] 0.17 | [7] -0.071 | [8] -0.074 | [16] -0.145 | [2] 0.001 | [9] -0.096 | [10] 0.291 | [11] -0.21 | [6] 0.04 | [12] -0.011
active: [14] -0.651
